Assay results reported in PubChem BioAssay.
The other results are listed elsewhere or left out. These are further read-outs of the screen, such as a control signal, another cell line or another target. No call is given for them. Bridge positions count the residues as written; N and C are the ends. Square brackets hold non-standard residues; d marks the D form. Peptide text beside a SMILES is read from it. * marks the point of attachment. Octanoyl(6-Me) = CCC(C)CCCCC(=O)*; Dab = NCC[CH](N)C(=O)O

Assay: protection against mutant huntingtin cytotoxicity, PC12 cells, LDH release (AID 1610)
Conditions: PC12 mutant huntingtin toxicity, final LDH at 4 uM, stronger effect = lower value

Row | SMILES | normalised LDH release
1 | O=C1C(CCS(=O)c2ccccc2)C(=O)N(c2ccccc2)N1c1ccccc1 (centres undefined) | 0.711
2 | COc1cc(CNC(=O)CCCC/C=C/C(C)C)ccc1O | 0.896
3 | CC(C)NCC(O)COc1cccc2ccccc12 (centres undefined) | 0.929
4 | CCC(=O)OCC(=O)C1(OC(=O)CC)C(C)CC2C3CCC4=CC(=O)C=CC4(C)C3(Cl)C(O)CC21C (centres undefined) | 0.661
5 | CC1=C(CC(=O)O)c2cc(F)ccc2/C1=C\c1ccc(S(C)=O)cc1 (centres undefined) | 0.76
6 | CN(C)CCCO[C@H]1[C@@H](C(O)CO)OC2OC(C)(C)O[C@@H]21 (some centres undefined) | 0.298
7 | CC(CNC(=O)c1ccccc1)C(=O)OCC(=O)[C@@]12OC(C)(C)O[C@@H]1CC1C3CCC4=CC(=O)C=C[C@]4(C)[C@@]3(F)[C@@H](O)C[C@@]12C (some centres undefined) | 0.356
8 | CON | 1.02
9 | CC(=O)O[C@]1(C(C)=O)CCC2C3C[C@H](C)C4=CC(=O)CC[C@]4(C)C3CC[C@@]21C (some centres undefined) | 0.796
10 | CC(COc1ccccc1)NC(C)[C@H](O)c1ccc(O)cc1 (some centres undefined) | 0.877
11 | c1ccc2[nH]c(-c3cscn3)nc2c1 | 0.666
12 | Nc1ccc(S(=O)(=O)c2ccc(N)cc2)cc1 | 1.32
13 | COC(=O)[C@H]1[C@H]2C[C@@H]3c4[nH]c5cc(OC)ccc5c4CCN3C[C@H]2C[C@@H](OC(=O)c2cc(OC)c(OC)c(OC)c2)[C@@H]1OC | 0.778
14 | NC(N)=Nc1nc(CSCC/C(N)=N\S(N)(=O)=O)cs1 | 0.919
15 | COc1ccc2c(c1)c(CC(=O)OCC(=O)O)c(C)n2C(=O)c1ccc(Cl)cc1 | 1.07
16 | CCC(C)CCCCC(=O)NC(CCN)C(=O)NC(C(=O)NC(CCN)C(=O)NC1CCNC(=O)C(C(C)O)NC(=O)C(CCN)NC(=O)C(CCN)NC(=O)C(CC(C)C)NC(=O)C(Cc2ccccc2)NC(=O)C(CCN)NC1=O)C(C)O (centres undefined) ({Octanoyl(6-Me)}-[Dab]T[Dab][Dab][Dab]FL[Dab][Dab]T; lactam 4-C; configuration not given here) | 0.915
17 | CC(=O)OCC(COC(C)=O)OC(C)=O | 0.777
18 | C[C@@H]1O[C@@H](OC[C@H]2O[C@@H](Oc3c(-c4ccc(O)c(O)c4)oc4cc(O)cc(O)c4c3=O)[C@H](O)[C@@H](O)[C@@H]2O)[C@H](O)[C@H](O)[C@H]1O | 0.805
19 | CN/C(=C\[N+](=O)[O-])NCCSCc1ccc(CN(C)C)o1 | 0.742
20 | CCC(=O)c1ccc2c(c1)N(CC(C)N(C)C)c1ccccc1S2 (centres undefined) | 0.767

Exported as tab-separated lines: part of the list above
Row	SMILES	normalised LDH release
11	c1ccc2[nH]c(-c3cscn3)nc2c1	0.666
12	Nc1ccc(S(=O)(=O)c2ccc(N)cc2)cc1	1.32
13	COC(=O)[C@H]1[C@H]2C[C@@H]3c4[nH]c5cc(OC)ccc5c4CCN3C[C@H]2C[C@@H](OC(=O)c2cc(OC)c(OC)c(OC)c2)[C@@H]1OC	0.778
14	NC(N)=Nc1nc(CSCC/C(N)=N\S(N)(=O)=O)cs1	0.919
15	COc1ccc2c(c1)c(CC(=O)OCC(=O)O)c(C)n2C(=O)c1ccc(Cl)cc1	1.07
16	CCC(C)CCCCC(=O)NC(CCN)C(=O)NC(C(=O)NC(CCN)C(=O)NC1CCNC(=O)C(C(C)O)NC(=O)C(CCN)NC(=O)C(CCN)NC(=O)C(CC(C)C)NC(=O)C(Cc2ccccc2)NC(=O)C(CCN)NC1=O)C(C)O (centres undefined) ({Octanoyl(6-Me)}-[Dab]T[Dab][Dab][Dab]FL[Dab][Dab]T; lactam 4-C; configuration not given here)	0.915
17	CC(=O)OCC(COC(C)=O)OC(C)=O	0.777
18	C[C@@H]1O[C@@H](OC[C@H]2O[C@@H](Oc3c(-c4ccc(O)c(O)c4)oc4cc(O)cc(O)c4c3=O)[C@H](O)[C@@H](O)[C@@H]2O)[C@H](O)[C@H](O)[C@H]1O	0.805

Remaining list, next part.

Row | SMILES | normalised LDH release
21 | CCCN(CCC)S(=O)(=O)c1ccc(C(=O)O)cc1 | 0.9
22 | CC(=O)CC(c1ccccc1)c1c(O)c2ccccc2oc1=O (centres undefined) | 0.995
23 | CC(C(=O)O)c1ccc(C(=O)c2cccs2)cc1 (centres undefined) | 0.857
24 | NC(=O)c1cnccn1 | 0.783
25 | CN(Cc1cnc2nc(N)nc(N)c2n1)c1ccc(C(=O)N[C@@H](CCC(=O)O)C(=O)O)cc1 | 1.08
26 | Clc1cc(Cl)c(OCC#CI)cc1Cl | 0.645
27 | CNCCCN1c2ccccc2CCc2ccccc21 | 0.705
28 | CN=C(NC#N)NCCSCc1nc[nH]c1C | 0.95
29 | CC(=C(CCOP(=O)(O)O)SC(=O)c1ccccc1)N(C=O)Cc1cnc(C)nc1N | 1.11
30 | OC[C@H]1O[C@@H](O[C@@H]2[C@@H](CO)O[C@](O)(CO)[C@H]2O)[C@H](O)[C@@H](O)[C@H]1O | 0.857
31 | Cn1cnc([N+](=O)[O-])c1Sc1ncnc2nc[nH]c12 | 1.07
32 | CCn1cc(C(=O)O)c(=O)c2cnc(N3CCNCC3)nc21 | 1.14
33 | CN1CCC(OC(c2ccccc2)c2ccccc2)CC1 | 1
34 | NC(COCc1ccccc1)C(=O)O (centres undefined) | 0.916
35 | N=C(N)c1ccc(OCCCCCOc2ccc(C(=N)N)cc2)cc1 | 0.148
36 | CC(C)COCC(CN(Cc1ccccc1)c1ccccc1)N1CCCC1 (centres undefined) | 0.978
37 | Nc1ncnc2c1ncn2[C@@H]1O[C@H](CO)[C@@H](O)[C@@H]1O | 1.1
38 | CN(C)CCC=C1c2ccccc2CCc2ccccc21 | 1.03
39 | O=C(O)C1=CCNCC1 | 0.949
